Measurements reported in the NIST ThermoML archive (doi:10.1021/je9002515).
± gives the expanded uncertainty stated by the source.

Assays:
[1] = relative permittivity at zero frequency (dimensionless); conditions: 101 kPa, Liquid, Parallel plate capacitor
[2] = relative permittivity at zero frequency (dimensionless); xn = mol fraction of the nth substance listed; conditions: 101 kPa, Liquid, Parallel plate capacitor, x2 = 0

| SMILES | relative permittivity at zero frequency ([1]; 303.15 K) | relative permittivity at zero frequency ([1]; 313.15 K) | relative permittivity at zero frequency ([1]; 323.15 K) | relative permittivity at zero frequency ([1]; 333.15 K) | relative permittivity at zero frequency ([1]; 343.15 K) | relative permittivity at zero frequency ([1]; 353.15 K) | relative permittivity at zero frequency ([1]; 363.15 K) | relative permittivity at zero frequency ([1]; 373.15 K) | relative permittivity at zero frequency ([1]; 383.15 K) | relative permittivity at zero frequency ([1]; 393.15 K) | relative permittivity at zero frequency ([2]; 303.15 K) | relative permittivity at zero frequency ([2]; 313.15 K) | relative permittivity at zero frequency ([2]; 323.15 K) | relative permittivity at zero frequency ([2]; 333.15 K) | relative permittivity at zero frequency ([2]; 343.15 K) | relative permittivity at zero frequency ([2]; 353.15 K) | relative permittivity at zero frequency ([2]; 363.15 K) | relative permittivity at zero frequency ([2]; 373.15 K) | relative permittivity at zero frequency ([2]; 383.15 K) | relative permittivity at zero frequency ([2]; 393.15 K) |
| --- | --- | --- | --- | --- | --- | --- | --- | --- | --- | --- | --- | --- | --- | --- | --- | --- | --- | --- | --- | --- |
| CC(=O)N(C)C [N,N-dimethylethanamide] | 38.67 ± 0.39 | 36.551 ± 0.37 | 34.678 ± 0.35 | 32.949 ± 0.33 | 31.458 ± 0.32 | 29.954 ± 0.3 | 28.578 ± 0.29 | 27.287 ± 0.27 | 26.074 ± 0.26 | 24.923 ± 0.25 |  |  |  |  |  |  |  |  |  |  |
| CC(=O)N(C)C [N,N-dimethylethanamide] + CNC(C)=O |  |  |  |  |  |  |  |  |  |  | 38.67 ± 0.39 | 36.551 ± 0.37 | 34.678 ± 0.35 | 32.949 ± 0.33 | 31.458 ± 0.32 | 29.954 ± 0.3 | 28.578 ± 0.29 | 27.287 ± 0.27 | 26.074 ± 0.26 | 24.923 ± 0.25 |
